In US20140079716A1:
These are yes or no findings as the source states them, for the method shown. Some entries that bind do so weakly or less than the wild type.

Chains of the proteins cited; added tags and fusions are not shown. Residues count along the entry.
UniProt P36941, residues 31-227: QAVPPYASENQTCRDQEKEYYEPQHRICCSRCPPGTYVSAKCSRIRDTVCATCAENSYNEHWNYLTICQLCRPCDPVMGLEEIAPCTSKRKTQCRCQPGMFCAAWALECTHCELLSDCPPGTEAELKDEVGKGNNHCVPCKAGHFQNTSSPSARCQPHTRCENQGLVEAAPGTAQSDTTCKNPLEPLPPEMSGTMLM

Legend:
[1] = target: T1, LTα1β2 on the surface of PMA-treated II-23 cells (UniProt P01374); test: competition FACS (II-23 assay): PMA-treated II-23 cells, varied competitor, then biotin-LTβR-Ig at 1 ug/ml, streptavidin-PE; MFI of bound LTβR-Ig
T1 sequence 1: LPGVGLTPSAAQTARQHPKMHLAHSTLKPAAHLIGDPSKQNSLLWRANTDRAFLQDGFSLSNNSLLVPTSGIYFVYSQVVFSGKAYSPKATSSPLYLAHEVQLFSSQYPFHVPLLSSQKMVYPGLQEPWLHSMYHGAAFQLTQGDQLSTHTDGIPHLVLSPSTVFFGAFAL
T1 sequence 2: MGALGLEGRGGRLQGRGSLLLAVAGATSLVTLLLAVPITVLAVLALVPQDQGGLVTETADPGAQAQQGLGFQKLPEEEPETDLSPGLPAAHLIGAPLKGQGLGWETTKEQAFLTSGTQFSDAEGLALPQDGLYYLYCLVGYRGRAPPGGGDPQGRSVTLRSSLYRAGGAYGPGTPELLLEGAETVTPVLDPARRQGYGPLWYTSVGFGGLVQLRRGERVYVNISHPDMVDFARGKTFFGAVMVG

[2] = target: T1, LTα1β2 on the surface of PMA-treated II-23 cells; test: competition FACS (II-23 assay, as in FIG. 4): LT-expressing cells, varied competitor, labelled LTβR-Ig; MFI of bound LTβR-Ig

**Q.** With “LTβR-Ig (from UniProt P36941 31-227) (Fc fusion)” as the substance, how does the binding [1] read?
**A.** binds

**Q.** And the binding [2]?
**A.** binds
